Values from PubChem BioAssay AID1259279 (Sanger Institute, 2017)
Purpose: 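Kinase-wide knock-down seeking synergy with BYL719, cetuximab or trametinib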 (primary screen). System: LS180 human colorectal cancer cells. Knock-down reagent: siRNA pool against human genes. Challenge: anchor drug BYL719 at 1 µM, cetuximab at 5 µg/ml or trametinib at 10 nM, or DMSO vehicle only. Read-out: 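Viability as a fraction of non-targeting control and as a replicate-averaged robust z-score, with separate synergy scores for BYL719, cetuximab and trametinib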. Scale: viability z-score, no drug: higher = more viable cells after knock-down. Rule for the call: 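Essential (active) calls need a no-drug viability z-score lower than -3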. Meaning of the calls: active = essential (knock-down alone cuts viability); inactive = no change without drug.
Shown is an unselected part of 794 deposited reagents. Over the whole deposit, 11 (1.4%) are marked active. 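Calls reflect knock-down alone in the vehicle arm, not drug synergy.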 A number with no mark means an inactive call. Further read-outs or replicates are left out here. The record does not give: the amount of reagent, the time to read-out.

{"gene knocked down":"NAGK (GeneID 55577)","viability z-score, no drug":"-3.04 (active)"}
{"gene knocked down":"WNK2 (GeneID 65268)","viability z-score, no drug":0.86}
{"gene knocked down":"EPHA4 (GeneID 2043)","viability z-score, no drug":-0.0113}
{"gene knocked down":"RIOK1 (GeneID 83732)","viability z-score, no drug":-1.76}
{"gene knocked down":"LYN (GeneID 4067)","viability z-score, no drug":0.0298}
{"gene knocked down":"CAMK1D (GeneID 57118)","viability z-score, no drug":0.495}
{"gene knocked down":"MELK (GeneID 9833)","viability z-score, no drug":0.0478}
{"gene knocked down":"TAOK3 (GeneID 51347)","viability z-score, no drug":-1.48}
{"gene knocked down":"EFNB3 (GeneID 1949)","viability z-score, no drug":-2.34}
{"gene knocked down":"NME7 (GeneID 29922)","viability z-score, no drug":0.86}
{"gene knocked down":"MAP3K15 (GeneID 389840)","viability z-score, no drug":0.86}
{"gene knocked down":"NME4 (GeneID 4833)","viability z-score, no drug":0.86}
